Laboratory results reported in the supplement of paper PMC11006884.
The entries are a selection whose mix differs from that of the whole data set.

Sequences of proteins named here, by UniProt entry; tags and fusion partners are left off. A change or cut given only in a name is not applied to a line headed by its entry.
UniProt Q13526, whole entry, looked up: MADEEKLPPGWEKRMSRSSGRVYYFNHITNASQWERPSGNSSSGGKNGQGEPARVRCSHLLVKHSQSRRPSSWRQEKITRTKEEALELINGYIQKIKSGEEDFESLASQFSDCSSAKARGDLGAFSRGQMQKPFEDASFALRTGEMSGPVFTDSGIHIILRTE
UniProt Q14160: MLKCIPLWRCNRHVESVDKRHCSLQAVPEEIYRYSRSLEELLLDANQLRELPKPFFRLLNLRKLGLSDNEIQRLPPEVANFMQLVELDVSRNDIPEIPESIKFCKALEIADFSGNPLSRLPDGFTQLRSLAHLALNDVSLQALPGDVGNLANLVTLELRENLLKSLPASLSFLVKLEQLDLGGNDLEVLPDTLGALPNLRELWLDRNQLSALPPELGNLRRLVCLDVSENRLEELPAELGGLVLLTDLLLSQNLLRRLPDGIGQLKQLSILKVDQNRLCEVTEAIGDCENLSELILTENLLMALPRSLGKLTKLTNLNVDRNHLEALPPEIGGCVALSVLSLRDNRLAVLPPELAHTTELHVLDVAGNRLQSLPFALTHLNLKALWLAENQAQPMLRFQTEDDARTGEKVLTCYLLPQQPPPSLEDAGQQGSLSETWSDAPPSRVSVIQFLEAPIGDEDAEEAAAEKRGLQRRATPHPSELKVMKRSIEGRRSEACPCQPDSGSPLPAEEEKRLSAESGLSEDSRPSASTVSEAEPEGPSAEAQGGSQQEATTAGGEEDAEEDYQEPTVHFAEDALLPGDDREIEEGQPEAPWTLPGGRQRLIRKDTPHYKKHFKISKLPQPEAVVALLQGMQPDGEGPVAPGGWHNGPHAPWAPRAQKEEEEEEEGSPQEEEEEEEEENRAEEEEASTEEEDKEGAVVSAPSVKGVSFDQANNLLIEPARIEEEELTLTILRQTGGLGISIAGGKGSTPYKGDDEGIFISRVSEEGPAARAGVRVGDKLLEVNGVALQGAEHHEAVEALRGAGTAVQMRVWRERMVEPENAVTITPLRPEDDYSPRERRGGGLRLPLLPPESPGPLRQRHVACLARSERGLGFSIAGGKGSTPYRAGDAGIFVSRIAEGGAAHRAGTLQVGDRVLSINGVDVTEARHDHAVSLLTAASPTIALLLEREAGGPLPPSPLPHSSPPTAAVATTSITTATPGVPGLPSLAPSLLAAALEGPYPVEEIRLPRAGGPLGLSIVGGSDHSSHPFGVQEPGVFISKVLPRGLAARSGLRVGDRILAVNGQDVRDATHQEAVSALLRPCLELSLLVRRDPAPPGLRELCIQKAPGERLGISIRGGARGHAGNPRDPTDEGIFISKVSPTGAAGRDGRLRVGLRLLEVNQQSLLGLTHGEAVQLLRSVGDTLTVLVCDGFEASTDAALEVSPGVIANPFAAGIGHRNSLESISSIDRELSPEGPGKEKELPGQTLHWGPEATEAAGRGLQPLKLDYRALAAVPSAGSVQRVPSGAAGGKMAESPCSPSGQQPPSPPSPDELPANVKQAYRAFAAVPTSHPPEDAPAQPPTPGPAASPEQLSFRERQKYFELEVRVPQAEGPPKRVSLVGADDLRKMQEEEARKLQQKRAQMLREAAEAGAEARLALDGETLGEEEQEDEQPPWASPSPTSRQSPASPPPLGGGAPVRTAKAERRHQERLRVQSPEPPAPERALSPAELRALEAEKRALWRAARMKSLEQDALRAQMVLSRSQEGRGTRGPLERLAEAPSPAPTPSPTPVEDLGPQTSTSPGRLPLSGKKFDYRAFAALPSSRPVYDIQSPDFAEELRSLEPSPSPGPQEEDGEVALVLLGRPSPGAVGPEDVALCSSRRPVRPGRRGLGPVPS
UniProt Q14204, whole entry, looked up: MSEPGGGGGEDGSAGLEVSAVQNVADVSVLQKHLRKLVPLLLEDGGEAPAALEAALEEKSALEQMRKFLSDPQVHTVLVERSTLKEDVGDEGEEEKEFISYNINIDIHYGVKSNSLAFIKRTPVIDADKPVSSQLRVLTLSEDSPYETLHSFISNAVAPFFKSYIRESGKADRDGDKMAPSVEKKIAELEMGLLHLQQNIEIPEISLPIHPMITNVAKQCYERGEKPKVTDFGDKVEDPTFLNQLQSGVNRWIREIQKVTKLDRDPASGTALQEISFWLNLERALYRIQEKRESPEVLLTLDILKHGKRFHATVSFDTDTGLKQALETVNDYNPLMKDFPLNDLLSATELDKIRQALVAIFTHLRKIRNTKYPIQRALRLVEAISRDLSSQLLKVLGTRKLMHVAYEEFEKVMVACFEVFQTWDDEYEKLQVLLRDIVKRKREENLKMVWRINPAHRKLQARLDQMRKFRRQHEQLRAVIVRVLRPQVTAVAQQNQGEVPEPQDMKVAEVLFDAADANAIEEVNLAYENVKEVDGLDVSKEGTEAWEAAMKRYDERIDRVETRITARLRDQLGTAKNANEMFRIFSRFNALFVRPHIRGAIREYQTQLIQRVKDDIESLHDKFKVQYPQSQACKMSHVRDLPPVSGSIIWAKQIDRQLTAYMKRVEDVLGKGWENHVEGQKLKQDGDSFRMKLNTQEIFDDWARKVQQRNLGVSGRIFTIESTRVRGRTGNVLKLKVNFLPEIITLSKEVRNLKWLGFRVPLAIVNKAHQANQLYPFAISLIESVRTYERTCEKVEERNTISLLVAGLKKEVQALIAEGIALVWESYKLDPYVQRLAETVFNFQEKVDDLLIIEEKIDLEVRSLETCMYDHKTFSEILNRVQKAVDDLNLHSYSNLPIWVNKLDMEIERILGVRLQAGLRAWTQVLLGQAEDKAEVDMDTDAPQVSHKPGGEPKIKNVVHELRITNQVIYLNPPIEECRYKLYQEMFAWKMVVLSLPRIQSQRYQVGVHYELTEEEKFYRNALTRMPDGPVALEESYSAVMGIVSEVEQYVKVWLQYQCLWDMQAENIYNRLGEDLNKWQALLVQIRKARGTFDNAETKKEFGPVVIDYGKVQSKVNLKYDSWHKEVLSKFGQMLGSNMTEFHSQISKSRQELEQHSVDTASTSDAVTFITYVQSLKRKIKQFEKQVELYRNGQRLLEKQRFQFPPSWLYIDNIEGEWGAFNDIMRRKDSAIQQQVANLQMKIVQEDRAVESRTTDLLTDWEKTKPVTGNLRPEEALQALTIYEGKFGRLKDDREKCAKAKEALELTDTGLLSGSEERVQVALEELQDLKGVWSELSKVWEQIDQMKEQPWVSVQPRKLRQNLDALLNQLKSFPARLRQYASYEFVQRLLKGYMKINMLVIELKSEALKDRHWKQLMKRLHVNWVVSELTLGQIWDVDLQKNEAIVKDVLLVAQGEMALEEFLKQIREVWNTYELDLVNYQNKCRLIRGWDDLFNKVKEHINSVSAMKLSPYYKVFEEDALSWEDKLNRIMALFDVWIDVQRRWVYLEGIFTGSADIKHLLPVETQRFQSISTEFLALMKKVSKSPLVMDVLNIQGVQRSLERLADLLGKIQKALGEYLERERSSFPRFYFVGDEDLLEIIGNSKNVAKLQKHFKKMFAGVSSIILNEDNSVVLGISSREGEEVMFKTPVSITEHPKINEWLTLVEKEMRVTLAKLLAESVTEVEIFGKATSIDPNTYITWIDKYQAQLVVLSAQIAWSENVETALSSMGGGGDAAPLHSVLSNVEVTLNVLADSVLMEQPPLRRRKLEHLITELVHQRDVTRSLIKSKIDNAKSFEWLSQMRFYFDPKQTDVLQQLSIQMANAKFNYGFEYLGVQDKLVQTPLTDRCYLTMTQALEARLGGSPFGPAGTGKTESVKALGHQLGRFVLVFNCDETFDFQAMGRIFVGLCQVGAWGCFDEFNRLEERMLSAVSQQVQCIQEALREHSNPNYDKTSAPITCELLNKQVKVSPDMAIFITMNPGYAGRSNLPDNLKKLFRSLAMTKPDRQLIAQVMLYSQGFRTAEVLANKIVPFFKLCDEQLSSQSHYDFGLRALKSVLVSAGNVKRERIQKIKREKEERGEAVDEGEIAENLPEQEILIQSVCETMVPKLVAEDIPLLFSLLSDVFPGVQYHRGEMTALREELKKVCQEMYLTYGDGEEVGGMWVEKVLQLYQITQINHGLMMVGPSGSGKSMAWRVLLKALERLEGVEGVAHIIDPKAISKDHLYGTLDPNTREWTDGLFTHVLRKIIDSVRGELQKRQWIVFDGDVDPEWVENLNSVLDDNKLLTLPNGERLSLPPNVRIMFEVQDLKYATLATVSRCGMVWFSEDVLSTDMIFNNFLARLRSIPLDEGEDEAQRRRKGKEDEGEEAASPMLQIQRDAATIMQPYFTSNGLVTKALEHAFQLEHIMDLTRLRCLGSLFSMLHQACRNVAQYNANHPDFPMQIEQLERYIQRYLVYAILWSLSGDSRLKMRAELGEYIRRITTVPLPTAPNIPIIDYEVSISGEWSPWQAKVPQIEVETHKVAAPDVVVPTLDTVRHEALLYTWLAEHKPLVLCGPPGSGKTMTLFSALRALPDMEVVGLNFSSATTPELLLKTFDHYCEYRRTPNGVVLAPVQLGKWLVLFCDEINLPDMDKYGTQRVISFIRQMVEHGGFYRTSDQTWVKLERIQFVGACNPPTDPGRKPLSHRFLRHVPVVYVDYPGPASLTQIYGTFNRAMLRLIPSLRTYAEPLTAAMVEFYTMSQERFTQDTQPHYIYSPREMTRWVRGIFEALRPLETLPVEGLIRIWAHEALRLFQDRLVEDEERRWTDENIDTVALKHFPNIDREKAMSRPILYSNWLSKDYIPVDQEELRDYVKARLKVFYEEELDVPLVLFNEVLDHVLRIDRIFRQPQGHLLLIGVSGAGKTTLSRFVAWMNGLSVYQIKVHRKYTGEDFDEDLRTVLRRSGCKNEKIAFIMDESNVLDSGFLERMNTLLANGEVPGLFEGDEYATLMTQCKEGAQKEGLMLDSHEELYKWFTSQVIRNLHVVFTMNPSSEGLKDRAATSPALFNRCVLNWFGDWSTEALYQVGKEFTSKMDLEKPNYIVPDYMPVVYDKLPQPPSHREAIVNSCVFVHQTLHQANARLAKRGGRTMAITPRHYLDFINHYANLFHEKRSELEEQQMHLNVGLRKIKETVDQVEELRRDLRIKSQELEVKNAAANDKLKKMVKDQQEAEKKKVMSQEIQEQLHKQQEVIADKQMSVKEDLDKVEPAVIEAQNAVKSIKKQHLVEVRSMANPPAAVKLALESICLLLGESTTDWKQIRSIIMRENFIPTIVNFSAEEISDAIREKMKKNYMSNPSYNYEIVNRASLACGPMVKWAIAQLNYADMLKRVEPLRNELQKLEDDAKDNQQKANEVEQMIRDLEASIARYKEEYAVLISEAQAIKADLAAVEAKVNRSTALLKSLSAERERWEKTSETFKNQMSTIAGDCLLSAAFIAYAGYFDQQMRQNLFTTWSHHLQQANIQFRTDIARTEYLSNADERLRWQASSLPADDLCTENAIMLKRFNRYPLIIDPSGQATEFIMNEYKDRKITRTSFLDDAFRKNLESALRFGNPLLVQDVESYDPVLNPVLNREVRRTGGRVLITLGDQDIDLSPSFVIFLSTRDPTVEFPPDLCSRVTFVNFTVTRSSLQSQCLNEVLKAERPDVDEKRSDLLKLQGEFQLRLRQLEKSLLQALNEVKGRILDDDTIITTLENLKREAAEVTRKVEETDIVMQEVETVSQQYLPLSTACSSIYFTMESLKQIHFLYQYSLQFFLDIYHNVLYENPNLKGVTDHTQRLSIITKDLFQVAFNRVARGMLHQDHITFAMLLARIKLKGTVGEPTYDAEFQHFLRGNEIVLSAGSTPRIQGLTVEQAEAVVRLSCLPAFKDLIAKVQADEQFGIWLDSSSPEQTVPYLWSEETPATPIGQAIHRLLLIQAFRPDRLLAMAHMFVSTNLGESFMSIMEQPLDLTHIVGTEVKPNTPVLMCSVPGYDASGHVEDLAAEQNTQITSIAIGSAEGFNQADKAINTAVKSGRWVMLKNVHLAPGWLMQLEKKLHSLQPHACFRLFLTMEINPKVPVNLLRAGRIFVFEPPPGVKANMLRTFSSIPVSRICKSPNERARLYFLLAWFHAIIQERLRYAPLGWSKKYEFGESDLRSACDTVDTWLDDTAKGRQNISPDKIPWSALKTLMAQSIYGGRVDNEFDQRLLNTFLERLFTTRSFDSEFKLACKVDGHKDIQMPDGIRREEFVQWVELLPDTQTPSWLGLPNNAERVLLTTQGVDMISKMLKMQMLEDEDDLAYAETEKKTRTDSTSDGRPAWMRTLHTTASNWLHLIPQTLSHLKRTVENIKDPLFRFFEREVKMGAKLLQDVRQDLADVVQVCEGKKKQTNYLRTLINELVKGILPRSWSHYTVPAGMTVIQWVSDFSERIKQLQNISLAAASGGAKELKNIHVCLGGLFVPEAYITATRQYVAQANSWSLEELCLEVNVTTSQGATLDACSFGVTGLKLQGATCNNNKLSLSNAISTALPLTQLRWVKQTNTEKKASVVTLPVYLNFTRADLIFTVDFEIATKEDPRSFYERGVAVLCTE
UniProt Q13541: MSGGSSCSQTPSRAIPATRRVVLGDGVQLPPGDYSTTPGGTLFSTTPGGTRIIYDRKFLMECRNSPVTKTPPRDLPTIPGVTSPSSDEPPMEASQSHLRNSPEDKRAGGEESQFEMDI

Compound: COC(=O)C#Cc1ccccc1 [methyl 3-phenylpropiolate]
Experiment: log2 ratio of iodoacetamide-alkyne labeling of the cysteine site, DMSO over compound (competition); higher = stronger covalent engagement of the cysteine by the compound, active = 1 or more
Conditions: 500 µM; treatment time 1 h; system: HEK293T cell lysate
Method in brief: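 Reporter intensities give each cysteine's log2 competition ratio as the mean of control channels over the mean of compound channels. The samples were HEK293T lysate (2 mg/mL) given vehicle or electrophile (500 µM, 1 h, ambient temperature), then iodoacetamide alkyne (1 h), followed by click coupling to sCIP-TMT reagents, pooling, trypsin digestion overnight at 37 °C, streptavidin enrichment, acid elution, Orbitrap Eclipse LC-MS/MS with FAIMS and FragPipe quantification. Duplicate channels and three replicates were run, and cysteines quantified in only one replicate were discarded.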

Target | log2 ratio of iodoacetamide-alkyne labeling
DCTN1 C636 (UniProt Q14203) | inactive: 0.407
RASA3 C58 (UniProt Q14644) | inactive: 0.224
PIN1 C57 (UniProt Q13526) | inactive: -0.187
UniProt Q13885_C127 | inactive: -0.581
GOLGB1 C1285 (UniProt Q14789) | inactive: 0.284
BMS1 C317 (UniProt Q14692) | inactive: 0.0642
SCRIB C22 (UniProt Q14160) | inactive: 0.711
MORC3 C632 (UniProt Q14149) | inactive: 0.732
PDCD11 C151 (UniProt Q14690) | inactive: 0.508
SCRIB C1082 (UniProt Q14160) | inactive: 0.0156
DCTN2 C240 (UniProt Q13561) | inactive: 0.566
MORF4L2 C165 (UniProt Q15014) | inactive: 0.0726
LAGE3 C23 (UniProt Q14657) | inactive: 0.594
CBX2 C340 (UniProt Q14781) | inactive: 0.654
HLTF C442 (UniProt Q14527) | inactive: 0.431
SMC1A C781 (UniProt Q14683) | inactive: -0.0606
MTMR3 C826 (UniProt Q13615) | inactive: 0.456
UniProt Q14444_C226 | inactive: 0.212
RRP1B C386 (UniProt Q14684) | inactive: 0.28

Not a retest: entries from further up.
Target | log2 ratio of iodoacetamide-alkyne labeling
MORF4L2 C165 (UniProt Q15014) | inactive: 0.0726
LAGE3 C23 (UniProt Q14657) | inactive: 0.594
CBX2 C340 (UniProt Q14781) | inactive: 0.654

Continuation.

Target | log2 ratio of iodoacetamide-alkyne labeling
UniProt Q14574_C471 | inactive: 0.274
SAFB2 C224 (UniProt Q14151) | inactive: 0.0642
DYNC1H1 C4121 (UniProt Q14204) | inactive: 0.159
CKAP5 C592 (UniProt Q14008) | inactive: 0.385
UniProt Q13885_C354 | inactive: 0.511
USP10 C456 (UniProt Q14694) | inactive: 0.314
URB2 C1132 (UniProt Q14146) | inactive: -0.159
TUBB3 C303 (UniProt Q13509) | inactive: 0.517
FHL1 C150 (UniProt Q13642) | inactive: -0.0675
EIF4EBP1 C7 (UniProt Q13541) | inactive: 0.716
NUMA1 C658 (UniProt Q14980) | inactive: -0.0504
BLMH C73 (UniProt Q13867) | inactive: -0.00658
UniProt Q14004_C987 | inactive: 0.324
SPTAN1 C1314 (UniProt Q13813) | inactive: 0.12
DRAP1 C73 (UniProt Q14919) | inactive: -0.0364
SAFB2 C672 (UniProt Q14151) | inactive: 0.803
MDC1 C128 (UniProt Q14676) | inactive: 0.14
FHL1 C212 (UniProt Q13642) | inactive: 0.0707
